Source: the supplement of paper PMC6411743
± gives the standard deviation of the averaged measurements. This is a selection; strong and weak results do not stand in their true shares. Small differences around the control level are noise.

Amino acid sequences for entries named in this document (tags omitted). A change or cut given only in a name is not applied to a line headed by its entry.
UniProt P24539: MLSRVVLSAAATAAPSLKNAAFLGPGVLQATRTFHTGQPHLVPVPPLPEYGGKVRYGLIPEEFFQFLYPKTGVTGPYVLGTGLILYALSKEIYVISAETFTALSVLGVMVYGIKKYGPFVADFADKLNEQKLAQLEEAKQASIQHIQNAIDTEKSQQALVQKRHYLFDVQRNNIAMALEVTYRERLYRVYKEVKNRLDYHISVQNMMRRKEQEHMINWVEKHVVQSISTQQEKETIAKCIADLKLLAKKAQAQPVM
UniProt P33991: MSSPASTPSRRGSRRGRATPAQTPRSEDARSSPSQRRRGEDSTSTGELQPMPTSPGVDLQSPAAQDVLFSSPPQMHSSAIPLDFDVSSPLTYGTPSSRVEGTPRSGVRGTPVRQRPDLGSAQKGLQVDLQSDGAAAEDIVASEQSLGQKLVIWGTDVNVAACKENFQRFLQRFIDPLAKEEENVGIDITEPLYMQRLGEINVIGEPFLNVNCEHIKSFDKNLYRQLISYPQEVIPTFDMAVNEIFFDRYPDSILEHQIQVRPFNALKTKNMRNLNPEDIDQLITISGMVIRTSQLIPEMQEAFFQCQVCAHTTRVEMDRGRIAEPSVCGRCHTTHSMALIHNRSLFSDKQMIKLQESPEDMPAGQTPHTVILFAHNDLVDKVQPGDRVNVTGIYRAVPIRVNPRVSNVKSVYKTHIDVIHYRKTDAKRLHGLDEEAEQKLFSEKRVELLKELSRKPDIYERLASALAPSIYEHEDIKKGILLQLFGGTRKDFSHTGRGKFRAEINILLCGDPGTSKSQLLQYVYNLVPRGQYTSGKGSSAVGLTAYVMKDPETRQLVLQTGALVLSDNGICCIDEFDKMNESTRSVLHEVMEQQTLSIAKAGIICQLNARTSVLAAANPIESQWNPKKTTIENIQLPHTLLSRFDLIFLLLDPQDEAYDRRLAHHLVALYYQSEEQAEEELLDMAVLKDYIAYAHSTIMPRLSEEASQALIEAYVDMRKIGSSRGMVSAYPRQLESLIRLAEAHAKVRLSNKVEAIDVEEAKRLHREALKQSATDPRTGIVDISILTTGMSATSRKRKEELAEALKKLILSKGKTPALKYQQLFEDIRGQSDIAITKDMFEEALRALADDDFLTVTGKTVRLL
UniProt P22314: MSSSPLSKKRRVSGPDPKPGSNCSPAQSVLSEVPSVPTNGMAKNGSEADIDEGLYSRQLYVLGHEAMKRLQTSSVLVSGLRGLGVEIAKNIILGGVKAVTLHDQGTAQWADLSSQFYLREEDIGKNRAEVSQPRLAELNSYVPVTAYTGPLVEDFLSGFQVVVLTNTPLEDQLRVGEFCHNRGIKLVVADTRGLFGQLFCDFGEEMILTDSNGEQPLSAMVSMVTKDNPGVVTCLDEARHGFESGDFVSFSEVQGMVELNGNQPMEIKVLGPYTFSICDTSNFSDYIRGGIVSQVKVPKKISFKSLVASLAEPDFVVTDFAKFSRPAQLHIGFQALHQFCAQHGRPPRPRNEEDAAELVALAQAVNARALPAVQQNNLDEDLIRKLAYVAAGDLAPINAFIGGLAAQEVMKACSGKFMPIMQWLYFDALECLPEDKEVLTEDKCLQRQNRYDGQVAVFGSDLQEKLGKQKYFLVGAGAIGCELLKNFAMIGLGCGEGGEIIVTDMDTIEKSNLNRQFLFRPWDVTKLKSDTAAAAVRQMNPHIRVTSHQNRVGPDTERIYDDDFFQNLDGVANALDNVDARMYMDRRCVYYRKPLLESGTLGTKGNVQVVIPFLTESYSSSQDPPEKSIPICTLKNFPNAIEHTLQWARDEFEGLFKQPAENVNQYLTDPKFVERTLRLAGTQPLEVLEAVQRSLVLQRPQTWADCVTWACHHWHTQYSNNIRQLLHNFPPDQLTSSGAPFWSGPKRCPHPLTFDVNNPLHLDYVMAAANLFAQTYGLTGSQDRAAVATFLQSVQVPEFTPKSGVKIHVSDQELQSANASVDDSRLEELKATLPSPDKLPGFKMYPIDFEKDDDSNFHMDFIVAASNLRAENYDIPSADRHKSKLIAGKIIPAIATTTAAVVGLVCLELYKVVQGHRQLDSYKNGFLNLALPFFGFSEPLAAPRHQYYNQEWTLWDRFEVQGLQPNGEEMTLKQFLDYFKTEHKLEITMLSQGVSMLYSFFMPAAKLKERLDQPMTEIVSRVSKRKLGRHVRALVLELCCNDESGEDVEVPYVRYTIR
UniProt P17152: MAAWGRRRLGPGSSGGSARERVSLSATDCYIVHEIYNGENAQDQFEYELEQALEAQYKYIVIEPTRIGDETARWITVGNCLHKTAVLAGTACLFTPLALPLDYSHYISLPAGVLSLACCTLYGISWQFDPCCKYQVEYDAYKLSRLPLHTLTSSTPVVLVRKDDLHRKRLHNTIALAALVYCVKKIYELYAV
UniProt P23526: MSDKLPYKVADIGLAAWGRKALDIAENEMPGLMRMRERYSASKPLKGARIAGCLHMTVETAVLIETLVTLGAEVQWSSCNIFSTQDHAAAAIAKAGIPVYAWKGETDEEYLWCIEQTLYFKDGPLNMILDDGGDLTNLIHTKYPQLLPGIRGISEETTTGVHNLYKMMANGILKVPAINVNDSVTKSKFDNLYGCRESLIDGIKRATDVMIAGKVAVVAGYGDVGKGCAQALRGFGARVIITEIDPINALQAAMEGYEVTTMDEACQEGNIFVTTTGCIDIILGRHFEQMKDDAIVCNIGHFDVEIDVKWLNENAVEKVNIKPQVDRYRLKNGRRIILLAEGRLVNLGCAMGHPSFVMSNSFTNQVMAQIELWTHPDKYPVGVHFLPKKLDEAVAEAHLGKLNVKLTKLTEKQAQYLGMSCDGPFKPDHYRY
UniProt P36551: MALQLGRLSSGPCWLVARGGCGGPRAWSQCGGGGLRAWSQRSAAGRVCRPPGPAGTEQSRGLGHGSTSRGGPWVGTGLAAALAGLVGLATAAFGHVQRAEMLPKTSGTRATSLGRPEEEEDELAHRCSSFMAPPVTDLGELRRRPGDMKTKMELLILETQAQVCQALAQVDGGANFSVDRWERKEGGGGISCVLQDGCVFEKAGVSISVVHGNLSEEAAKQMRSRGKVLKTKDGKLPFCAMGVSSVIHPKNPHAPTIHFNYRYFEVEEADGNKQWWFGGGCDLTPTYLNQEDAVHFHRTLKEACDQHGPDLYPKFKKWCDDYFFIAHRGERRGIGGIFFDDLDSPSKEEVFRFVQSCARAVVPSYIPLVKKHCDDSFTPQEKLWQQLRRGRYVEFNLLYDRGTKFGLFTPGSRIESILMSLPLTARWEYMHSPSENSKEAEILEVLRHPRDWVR
UniProt P20963, whole entry: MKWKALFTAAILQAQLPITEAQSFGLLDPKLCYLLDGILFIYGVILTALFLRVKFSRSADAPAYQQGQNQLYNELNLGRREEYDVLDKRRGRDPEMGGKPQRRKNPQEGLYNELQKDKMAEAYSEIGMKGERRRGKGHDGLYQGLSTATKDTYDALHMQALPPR
UniProt P19532: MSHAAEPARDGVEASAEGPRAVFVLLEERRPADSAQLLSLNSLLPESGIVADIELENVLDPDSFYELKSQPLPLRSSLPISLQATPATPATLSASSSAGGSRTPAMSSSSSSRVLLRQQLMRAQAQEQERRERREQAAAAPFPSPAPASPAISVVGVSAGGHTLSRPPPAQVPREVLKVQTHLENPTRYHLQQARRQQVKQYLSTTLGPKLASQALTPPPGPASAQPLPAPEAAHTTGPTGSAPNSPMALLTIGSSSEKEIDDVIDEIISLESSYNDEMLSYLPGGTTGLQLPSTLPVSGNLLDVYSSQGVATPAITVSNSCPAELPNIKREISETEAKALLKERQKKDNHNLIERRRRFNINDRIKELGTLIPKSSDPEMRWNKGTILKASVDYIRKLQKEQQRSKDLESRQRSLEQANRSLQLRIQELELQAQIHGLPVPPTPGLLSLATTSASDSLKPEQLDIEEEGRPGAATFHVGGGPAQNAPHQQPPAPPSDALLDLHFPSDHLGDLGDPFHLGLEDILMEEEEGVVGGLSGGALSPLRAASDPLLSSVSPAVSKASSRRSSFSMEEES
UniProt P23229: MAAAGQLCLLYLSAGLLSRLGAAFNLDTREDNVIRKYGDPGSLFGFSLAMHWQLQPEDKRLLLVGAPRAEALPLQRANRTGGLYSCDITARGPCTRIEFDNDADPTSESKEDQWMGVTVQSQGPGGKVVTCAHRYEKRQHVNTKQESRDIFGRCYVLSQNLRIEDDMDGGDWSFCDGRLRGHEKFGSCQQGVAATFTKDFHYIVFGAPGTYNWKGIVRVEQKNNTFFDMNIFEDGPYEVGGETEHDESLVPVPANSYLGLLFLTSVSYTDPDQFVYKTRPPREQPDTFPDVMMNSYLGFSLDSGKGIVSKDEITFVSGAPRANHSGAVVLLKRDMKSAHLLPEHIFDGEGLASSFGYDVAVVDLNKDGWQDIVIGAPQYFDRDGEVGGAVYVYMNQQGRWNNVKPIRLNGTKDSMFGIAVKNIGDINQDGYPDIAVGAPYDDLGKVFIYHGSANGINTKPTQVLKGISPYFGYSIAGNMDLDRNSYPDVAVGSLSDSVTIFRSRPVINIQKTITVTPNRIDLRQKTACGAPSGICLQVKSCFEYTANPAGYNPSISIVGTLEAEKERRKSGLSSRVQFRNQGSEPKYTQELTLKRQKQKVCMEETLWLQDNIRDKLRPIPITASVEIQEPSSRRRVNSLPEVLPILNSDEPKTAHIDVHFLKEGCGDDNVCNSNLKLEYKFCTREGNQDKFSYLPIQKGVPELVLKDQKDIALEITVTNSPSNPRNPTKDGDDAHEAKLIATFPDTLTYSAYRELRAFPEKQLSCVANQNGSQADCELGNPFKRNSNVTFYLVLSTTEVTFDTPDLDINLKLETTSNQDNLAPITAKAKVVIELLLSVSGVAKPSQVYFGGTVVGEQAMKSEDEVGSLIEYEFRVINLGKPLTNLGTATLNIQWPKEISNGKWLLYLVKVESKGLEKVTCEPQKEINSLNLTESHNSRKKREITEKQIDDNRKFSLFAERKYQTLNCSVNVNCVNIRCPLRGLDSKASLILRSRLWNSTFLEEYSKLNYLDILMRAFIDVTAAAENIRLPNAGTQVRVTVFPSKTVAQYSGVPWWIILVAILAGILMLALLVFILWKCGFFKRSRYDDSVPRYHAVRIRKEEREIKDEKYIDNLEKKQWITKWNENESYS
UniProt P20248, whole entry: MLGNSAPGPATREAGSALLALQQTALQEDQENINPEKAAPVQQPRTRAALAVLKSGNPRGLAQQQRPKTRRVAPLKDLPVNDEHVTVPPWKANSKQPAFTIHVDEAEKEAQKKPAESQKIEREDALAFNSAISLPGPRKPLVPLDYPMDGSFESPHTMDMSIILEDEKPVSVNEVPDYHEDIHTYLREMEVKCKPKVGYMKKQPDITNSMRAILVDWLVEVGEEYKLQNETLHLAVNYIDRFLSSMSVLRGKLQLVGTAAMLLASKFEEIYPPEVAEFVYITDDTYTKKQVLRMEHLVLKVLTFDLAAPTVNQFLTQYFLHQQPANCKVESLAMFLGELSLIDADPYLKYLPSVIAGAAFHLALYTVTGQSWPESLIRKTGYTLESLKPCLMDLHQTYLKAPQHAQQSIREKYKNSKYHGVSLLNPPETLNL
UniProt P20339: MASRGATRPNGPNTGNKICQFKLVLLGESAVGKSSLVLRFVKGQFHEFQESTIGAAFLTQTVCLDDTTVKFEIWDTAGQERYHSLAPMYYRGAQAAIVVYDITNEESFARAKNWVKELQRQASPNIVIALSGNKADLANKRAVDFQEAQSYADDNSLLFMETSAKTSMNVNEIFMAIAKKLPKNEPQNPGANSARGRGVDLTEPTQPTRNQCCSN
UniProt P26368, whole entry: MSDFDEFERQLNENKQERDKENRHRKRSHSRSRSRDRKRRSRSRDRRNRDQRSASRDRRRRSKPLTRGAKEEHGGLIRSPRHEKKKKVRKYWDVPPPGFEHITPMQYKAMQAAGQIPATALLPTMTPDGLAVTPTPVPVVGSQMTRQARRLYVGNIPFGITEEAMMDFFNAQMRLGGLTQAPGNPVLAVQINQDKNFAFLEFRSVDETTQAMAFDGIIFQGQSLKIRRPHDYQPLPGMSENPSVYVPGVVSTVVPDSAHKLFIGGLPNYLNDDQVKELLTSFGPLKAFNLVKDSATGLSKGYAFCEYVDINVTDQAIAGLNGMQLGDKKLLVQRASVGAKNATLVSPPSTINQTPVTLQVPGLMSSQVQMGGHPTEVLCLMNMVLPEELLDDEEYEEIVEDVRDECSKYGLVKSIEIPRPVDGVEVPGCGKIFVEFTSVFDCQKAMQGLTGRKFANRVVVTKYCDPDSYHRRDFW

Compound: Nc1ncnc2c1ncn2[C@@H]1O[C@H](COP(=O)(O)OP(=O)(O)NP(=O)(O)O)[C@@H](O)[C@H]1O [adenylyl imidodiphosphate]
Experiment: NP40-soluble protein abundance relative to vehicle (solubility fold change) (ratio); higher = more soluble protein in presence of AMP-PNP
How it was run: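 Crude Jurkat lysate, prepared by Dounce homogenisation, was exposed to eight concentrations from 0.1 to 10 mM for 10 min at room temperature and then 3 min at 37 °C. Solubilisation used 0.8% NP40 with benzonase for 60 min at 4 °C, followed by ultracentrifugation and TMT labelling of the supernatant for LC-MS/MS. After vsn normalisation of intensities, each value is the fold change against the detergent-processed vehicle within each replicate, across three independent experiments.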

Target	NP40-soluble protein abundance (concentration: 0.1mM)	NP40-soluble protein abundance (concentration: 0.5mM)
UniProt P22830 and related entries	1.01 ± 0.03	0.968 ± 0.055
UniProt P31629	0.996 ± 0.064	1 ± 0.06
ARID4A (UniProt P29374)	0.977 ± 0.026	1.01 ± 0.053
UniProt P24539 and related entries	1.02 ± 0.072	1.01 ± 0.067
UniProt P21359 and related entries	1.03 ± 0.023	0.965 ± 0.058
RDX (UniProt P35241)	0.986 ± 0.063	1.04 ± 0.086
UniProt P35221 and related entries	0.984 ± 0.043	0.98 ± 0.02
UniProt P32321 and related entries	0.98 ± 0.039	0.98 ± 0.05
MCM4 (UniProt P33991)	1 ± 0.028	0.982 ± 0.011
PRKCH (UniProt P24723)	1.02 ± 0.013	1 ± 0.012
GGT1 (UniProt P19440)	0.955 ± 0.021	1 ± 0.014
AKT2 (UniProt P31751)	0.972 ± 0.027	0.962 ± 0.016
AGA (UniProt P20933)	1.014 ± 0.0021	1.01 ± 0.028
VDAC1 (UniProt P21796)	0.984 ± 0.011	1.02 ± 0.035
UBA1 (UniProt P22314)	1 ± 0.013	0.9988 ± 0.0066
SLC7A1 (UniProt P30825)	0.9751 ± 0.0084	0.963 ± 0.028
UniProt P22307 and related entries	0.994 ± 0.026	1.03 ± 0.045
UniProt P28907	0.956 ± 0.016	0.971 ± 0.026
ERP29 (UniProt P30040)	1 ± 0.059	1.03 ± 0.085
AKAP5 (UniProt P24588)	0.972 ± 0.022	0.991 ± 0.041
UniProt P30626 and related entries	1.03 ± 0.059	1.06 ± 0.1
HPCAL1 (UniProt P37235)	0.986 ± 0.019	1 ± 0.037
UniProt P25398	0.989 ± 0.013	0.966 ± 0.014
UniProt P30520	0.978 ± 0.017	0.973 ± 0.013

Target	NP40-soluble protein abundance (concentration: 0.1mM)	NP40-soluble protein abundance (concentration: 0.5mM)
ERCC3 (UniProt P19447)	1 ± 0.018	0.996 ± 0.055
UniProt P26038 and related entries	0.938 ± 0.12	0.986 ± 0.086
TRIM21 (UniProt P19474)	0.964 ± 0.015	0.957 ± 0.018
PSMC2 (UniProt P35998)	0.994 ± 0.019	0.98 ± 0.027
SP100 (UniProt P23497)	0.992 ± 0.041	0.988 ± 0.064
GOT1 (UniProt P17174)	1.007 ± 0.009	0.997 ± 0.023
ATP6V1E1 (UniProt P36543)	1 ± 0.0089	1.003 ± 0.0097
GTF2E2 (UniProt P29084)	0.993 ± 0.041	1.03 ± 0.089
RPL7 (UniProt P18124)	0.963 ± 0.06	0.958 ± 0.059
UniProt P31942 and related entries	1.03 ± 0.06	1.06 ± 0.05
UniProt P26358 and related entries	0.995 ± 0.013	1.02 ± 0.031
TMEM11 (UniProt P17152)	1 ± 0.065	0.997 ± 0.1
AHCY (UniProt P23526)	1.012 ± 0.0095	1.03 ± 0.04
UniProt P25325 and related entries	0.993 ± 0.052	0.976 ± 0.033
UniProt P35613 and related entries	0.9649 ± 0.0093	1 ± 0.026
CPOX (UniProt P36551)	1.03 ± 0.025	1 ± 0.065
UniProt P22033	0.999 ± 0.021	0.9844 ± 0.0069
ITGA2 (UniProt P17301)	0.9923 ± 0.003	1.02 ± 0.015
UniProt P19838 and related entries	0.99 ± 0.021	0.987 ± 0.035
UniProt P18433 and related entries	1.03 ± 0.014	1.02 ± 0.019
VARS (UniProt P26640)	1.02 ± 0.014	0.99 ± 0.02
CD53 (UniProt P19397)	0.982 ± 0.043	1.08 ± 0.062
UniProt P28908 and related entries	0.9948 ± 0.0033	1.007 ± 0.0099
UniProt P38159 and related entries	1.03 ± 0.059	1.1 ± 0.089

Target	NP40-soluble protein abundance (concentration: 0.1mM)	NP40-soluble protein abundance (concentration: 0.5mM)
TNFAIP3 (UniProt P21580)	0.9954 ± 0.0053	1 ± 0.048
RAB3B (UniProt P20337)	0.9909 ± 0.0063	0.964 ± 0.017
STOM (UniProt P27105)	1.01 ± 0.023	1.01 ± 0.017
UniProt P20701 and related entries	1.01 ± 0.048	0.998 ± 0.036
FEN1 (UniProt P39748)	0.98 ± 0.038	1.02 ± 0.034
WARS (UniProt P23381)	0.994 ± 0.017	0.993 ± 0.053
PRDX2 (UniProt P32119)	0.9668 ± 0.0071	1 ± 0.035
HMGB2 (UniProt P26583)	0.998 ± 0.093	1.14 ± 0.17
FBL (UniProt P22087)	0.994 ± 0.039	1.01 ± 0.068
UniProt P18615	0.971 ± 0.011	0.974 ± 0.041
LRPAP1 (UniProt P30533)	0.968 ± 0.045	1.01 ± 0.034
UniProt P29353 and related entries	0.992 ± 0.038	1.02 ± 0.062
UniProt P20963-3|P20963	1.01 ± 0.069	1.01 ± 0.054
UniProt P25054 and related entries	0.9945 ± 0.0068	0.992 ± 0.052
UniProt P28065 and related entries	0.995 ± 0.048	0.964 ± 0.012
UniProt P37275-2|P37275-5|P37275	0.99 ± 0.027	0.975 ± 0.039
POLR2C (UniProt P19387)	0.994 ± 0.038	0.986 ± 0.046
MCM3 (UniProt P25205)	0.971 ± 0.021	0.944 ± 0.02
UQCRC2 (UniProt P22695)	1.07 ± 0.04	1.02 ± 0.034
CORO1A (UniProt P31146)	1.06 ± 0.057	1.05 ± 0.044
GSTM2 (UniProt P28161)	1.01 ± 0.058	0.979 ± 0.076
UniProt P17252	0.996 ± 0.011	1.03 ± 0.046
GSTM3 (UniProt P21266)	1.02 ± 0.042	1.06 ± 0.071
UniProt P38398 and related entries	0.99 ± 0.061	0.978 ± 0.028

Target	NP40-soluble protein abundance (concentration: 0.1mM)	NP40-soluble protein abundance (concentration: 0.5mM)
UniProt P28066 and related entries	0.997 ± 0.022	0.983 ± 0.011
PIK3R1 (UniProt P27986)	1.008 ± 0.0034	0.968 ± 0.028
IGFBP2 (UniProt P18065)	0.995 ± 0.03	1 ± 0.013
MCM5 (UniProt P33992)	0.98 ± 0.033	0.962 ± 0.027
UniProt P35658 and related entries	0.9851 ± 0.0094	1.02 ± 0.046
GBP1 (UniProt P32455)	0.979 ± 0.035	1.01 ± 0.063
UniProt P30044 and related entries	0.983 ± 0.013	1.01 ± 0.025
UniProt P25685 and related entries	1.03 ± 0.029	1.05 ± 0.035
AKT1 (UniProt P31749)	0.979 ± 0.038	0.959 ± 0.019
ZNF24 (UniProt P17028)	1.01 ± 0.032	0.979 ± 0.018
UniProt P28702 and related entries	0.995 ± 0.023	0.988 ± 0.023
ARL2 (UniProt P36404)	1 ± 0.025	1.01 ± 0.041
NMT1 (UniProt P30419)	1.06 ± 0.038	1.03 ± 0.057
TFE3 (UniProt P19532)	0.991 ± 0.025	0.97413 ± 0.00073
UniProt P17612	0.988 ± 0.13	0.935 ± 0.1
UniProt P23229 and related entries	1.02 ± 0.019	0.987 ± 0.054
NDUFB7 (UniProt P17568)	1.01 ± 0.071	1.07 ± 0.083
UniProt P23771 and related entries	0.988 ± 0.011	0.981 ± 0.029
UniProt P28749 and related entries	0.977 ± 0.019	0.932 ± 0.04
UniProt P30048 and related entries	0.98 ± 0.012	1.01 ± 0.023
RAB3A (UniProt P20336)	1.03 ± 0.026	1.04 ± 0.035
BCKDHB (UniProt P21953)	1.02 ± 0.019	0.99 ± 0.087
UniProt P32121 and related entries	1.02 ± 0.059	1.07 ± 0.043
RPA1 (UniProt P27694)	0.988 ± 0.019	0.993 ± 0.051

Some of the entries above in a different format.
Target,NP40-soluble protein abundance (concentration: 0.1mM),NP40-soluble protein abundance (concentration: 0.5mM)
UniProt P38159 and related entries,1.03 ± 0.059,1.1 ± 0.089
TNFAIP3 (UniProt P21580),0.9954 ± 0.0053,1 ± 0.048
RAB3B (UniProt P20337),0.9909 ± 0.0063,0.964 ± 0.017
STOM (UniProt P27105),1.01 ± 0.023,1.01 ± 0.017
UniProt P20701 and related entries,1.01 ± 0.048,0.998 ± 0.036
FEN1 (UniProt P39748),0.98 ± 0.038,1.02 ± 0.034
WARS (UniProt P23381),0.994 ± 0.017,0.993 ± 0.053
PRDX2 (UniProt P32119),0.9668 ± 0.0071,1 ± 0.035
HMGB2 (UniProt P26583),0.998 ± 0.093,1.14 ± 0.17
FBL (UniProt P22087),0.994 ± 0.039,1.01 ± 0.068
UniProt P18615,0.971 ± 0.011,0.974 ± 0.041
LRPAP1 (UniProt P30533),0.968 ± 0.045,1.01 ± 0.034
UniProt P29353 and related entries,0.992 ± 0.038,1.02 ± 0.062
UniProt P20963-3|P20963,1.01 ± 0.069,1.01 ± 0.054
UniProt P25054 and related entries,0.9945 ± 0.0068,0.992 ± 0.052
UniProt P28065 and related entries,0.995 ± 0.048,0.964 ± 0.012
UniProt P37275-2|P37275-5|P37275,0.99 ± 0.027,0.975 ± 0.039
POLR2C (UniProt P19387),0.994 ± 0.038,0.986 ± 0.046
MCM3 (UniProt P25205),0.971 ± 0.021,0.944 ± 0.02
UQCRC2 (UniProt P22695),1.07 ± 0.04,1.02 ± 0.034
CORO1A (UniProt P31146),1.06 ± 0.057,1.05 ± 0.044
GSTM2 (UniProt P28161),1.01 ± 0.058,0.979 ± 0.076
UniProt P17252,0.996 ± 0.011,1.03 ± 0.046
GSTM3 (UniProt P21266),1.02 ± 0.042,1.06 ± 0.071
UniProt P38398 and related entries,0.99 ± 0.061,0.978 ± 0.028
UniProt P28066 and related entries,0.997 ± 0.022,0.983 ± 0.011
PIK3R1 (UniProt P27986),1.008 ± 0.0034,0.968 ± 0.028
IGFBP2 (UniProt P18065),0.995 ± 0.03,1 ± 0.013
MCM5 (UniProt P33992),0.98 ± 0.033,0.962 ± 0.027
UniProt P35658 and related entries,0.9851 ± 0.0094,1.02 ± 0.046
GBP1 (UniProt P32455),0.979 ± 0.035,1.01 ± 0.063
UniProt P30044 and related entries,0.983 ± 0.013,1.01 ± 0.025
UniProt P25685 and related entries,1.03 ± 0.029,1.05 ± 0.035
AKT1 (UniProt P31749),0.979 ± 0.038,0.959 ± 0.019
ZNF24 (UniProt P17028),1.01 ± 0.032,0.979 ± 0.018

More entries:

Target	NP40-soluble protein abundance (concentration: 0.1mM)	NP40-soluble protein abundance (concentration: 0.5mM)
CCNA2 (UniProt P20248)	0.974 ± 0.022	0.99 ± 0.076
UniProt P23511 and related entries	1.2 ± 0.42	0.952 ± 0.039
JAK1 (UniProt P23458)	1.13 ± 0.059	1.13 ± 0.043
UniProt P38117 and related entries	0.976 ± 0.034	0.979 ± 0.027
UniProt P20339 and related entries	0.995 ± 0.054	1.02 ± 0.053
PSMA4 (UniProt P25789)	1 ± 0.036	1.01 ± 0.042
HNRNPA2B1 (UniProt P22626)	1.07 ± 0.14	1.03 ± 0.1
UniProt P26368 and related entries	1.11 ± 0.11	0.987 ± 0.091
UniProt P18754-2|P18754	0.991 ± 0.015	1.04 ± 0.02
TCEA1 (UniProt P23193)	0.995 ± 0.0029	1.02 ± 0.032
UniProt P23634 and related entries	1 ± 0.041	0.986 ± 0.05
IMPA1 (UniProt P29218)	0.985 ± 0.03	0.968 ± 0.045
UniProt P36954	1.04 ± 0.0041	1.03 ± 0.025
MYH9 (UniProt P35579)	1 ± 0.05	1.06 ± 0.071
P39880-3|Q13948 and related entries (UniProt Q13948+P39880)	0.986 ± 0.012	1.02 ± 0.032
UniProt P36402-5	0.9808 ± 0.008	0.981 ± 0.016
UniProt P17542 and related entries	1.01 ± 0.015	0.986 ± 0.012
UniProt P23443 and related entries	0.968 ± 0.021	1.01 ± 0.036
UniProt P35606 and related entries	1.03 ± 0.019	1.02 ± 0.021
UniProt P19174 and related entries	1 ± 0.056	0.963 ± 0.081
UniProt P23610	1.05 ± 0.03	0.991 ± 0.045
NAGA (UniProt P17050)	0.986 ± 0.028	0.992 ± 0.013
UniProt P33981 and related entries	1.01 ± 0.042	1.03 ± 0.034
HSPA4 (UniProt P34932)	0.964 ± 0.021	0.986 ± 0.032
